Measured values reported in publication PMC4330393.
No constants are given. Whether binding was seen depends on the method and setting. Some results given as binding are weak or reduced against the parent protein; the word gives no strength. Tags and fused reporters may be left off the sequences shown.

Assays:
[1] = target: T1, GST-Tap (188–619) (human) (UniProt Q9UBU9); assay: co-purification (GST affinity chromatography of co-expressed proteins); GST-Tap fragment and untagged p15 co-expressed in E. coli BL21(DE3) codon plus; glutathione-Sepharose chromatography; SDS-PAGE and CBB staining
T1 sequence: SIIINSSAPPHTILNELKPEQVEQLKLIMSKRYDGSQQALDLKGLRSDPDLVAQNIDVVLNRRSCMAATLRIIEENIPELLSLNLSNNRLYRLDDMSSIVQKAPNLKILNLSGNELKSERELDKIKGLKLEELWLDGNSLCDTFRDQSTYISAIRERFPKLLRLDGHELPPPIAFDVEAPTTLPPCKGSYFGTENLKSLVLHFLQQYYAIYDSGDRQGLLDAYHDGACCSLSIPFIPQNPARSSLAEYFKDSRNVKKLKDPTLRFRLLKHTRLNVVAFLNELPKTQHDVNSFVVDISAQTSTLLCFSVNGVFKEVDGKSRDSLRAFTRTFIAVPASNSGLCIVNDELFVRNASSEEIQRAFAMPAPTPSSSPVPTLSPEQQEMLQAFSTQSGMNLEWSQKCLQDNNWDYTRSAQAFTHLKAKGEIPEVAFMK

[2] = target: T2, GST-Tap (372–551) (human) (UniProt Q9UBU9); assay: as above
T2 sequence: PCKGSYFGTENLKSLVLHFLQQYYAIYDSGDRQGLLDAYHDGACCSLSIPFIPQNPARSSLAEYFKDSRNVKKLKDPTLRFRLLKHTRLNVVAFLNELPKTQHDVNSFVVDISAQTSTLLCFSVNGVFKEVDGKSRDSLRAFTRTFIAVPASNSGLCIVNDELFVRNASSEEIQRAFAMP

[3] = target: T3, GST-Tap (372–619) (human) (UniProt Q9UBU9); assay: as above
T3 sequence: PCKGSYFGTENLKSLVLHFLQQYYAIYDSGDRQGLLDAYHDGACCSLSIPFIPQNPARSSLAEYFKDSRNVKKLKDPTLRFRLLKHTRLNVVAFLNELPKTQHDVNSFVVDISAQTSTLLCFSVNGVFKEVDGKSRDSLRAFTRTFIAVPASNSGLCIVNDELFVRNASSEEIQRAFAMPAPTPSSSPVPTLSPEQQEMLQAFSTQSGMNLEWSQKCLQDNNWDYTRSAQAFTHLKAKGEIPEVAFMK

GST-Tap (96–551) (human) = target: T4, GST-Tap (96–551) (human) (UniProt Q9UBU9); assay: co-purification (GST affinity chromatography of co-expressed proteins); GST-Tap (96-551) and untagged p15 co-expressed in E. coli BL21(DE3) codon plus; glutathione-Sepharose, then heparin-agarose chromatography; SDS-PAGE and CBB staining
T4 sequence: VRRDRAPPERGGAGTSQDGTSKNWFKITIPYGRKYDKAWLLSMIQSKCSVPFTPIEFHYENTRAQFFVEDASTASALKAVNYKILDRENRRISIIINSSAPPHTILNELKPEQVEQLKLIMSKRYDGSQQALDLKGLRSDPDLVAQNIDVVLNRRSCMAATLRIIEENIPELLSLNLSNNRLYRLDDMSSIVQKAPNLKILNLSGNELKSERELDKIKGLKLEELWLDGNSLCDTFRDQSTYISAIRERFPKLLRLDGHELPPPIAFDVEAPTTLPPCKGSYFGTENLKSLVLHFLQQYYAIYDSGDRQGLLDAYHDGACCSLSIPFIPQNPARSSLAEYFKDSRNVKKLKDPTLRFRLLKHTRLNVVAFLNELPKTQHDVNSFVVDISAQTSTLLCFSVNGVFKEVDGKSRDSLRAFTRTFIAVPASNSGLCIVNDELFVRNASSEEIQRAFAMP

Measured: binding

B1: p15 (protein, UniProt Q9UKK6 1-140)
chain: MASVDFKTYVDQACRAAEEFVNVYYTTMDKRRRLLSRLYMGTATLVWNGNAVSGQESLSEFFEMLPSSEFQISVVDCQPVHDEATPSQTTVLVVICGSVKFEGNKQRDFNQNFILTAQASPSNTVWKIASDCFRFQDWAS
binds: [1] | [2] | [3] | GST-Tap (96–551) (human)
